Assay results: patent US20190264214
Weaker means in comparison with the reference protein, sequence or condition of that experiment. Construct, isoform or probe ends are uncertain for at least one entry.

What was measured:
FTO (Homo sapiens) = FTO (Homo sapiens) (UniProt Q9C0B1); assay: activity assay; conditions: HPLC demethylation, purified recombinant protein
DCP2 (Homo sapiens) = DCP2 (Homo sapiens) (UniProt Q8IU60); assay: enzyme reaction in vitro; conditions: enzymatically capped with m7Gppp, purified recombinant protein, label: 32P cap

GACACUUGCUUUUGACACAACU [m7Gpppm6Am RNA]
activity on this sequence (FTO (Homo sapiens); 5' m7Gppp cap, first nucleotide N6,2'-O-dimethyladenosine, 100 nM FTO, 1 h, 37 C, Fe(II), alpha-ketoglutarate, nearly all m6Am converted to Am, kcat/Km about 100-fold higher than for m6A): active

AGCACUUGCUUUUGACACAACU [m7Gppp-m6Am RNA (decapping)]
activity on this sequence (DCP2 (Homo sapiens); first nucleotide m6Am, significantly reduced decapping, variant of m7Gppp-A RNA (decapping)): less active

ACACUUGCUUUUGACACAACU [pppm6Am RNA]
activity on this sequence (FTO (Homo sapiens); 5' triphosphate, first nucleotide m6Am, further reduced when m7G removed, variant of m7Gpppm6Am RNA): less active

AGCACUUGCUUUUGACACAACU [m7Gppp-A RNA (decapping)]
activity on this sequence (DCP2 (Homo sapiens); first nucleotide A, 10 nM DCP2, 37 C, 2 mM MgCl2, 0.5 mM MnCl2, TLC decapping, oligo assigned from 22-nt length): active

GACACUUGCUUUUGACACAACU [m7Gpppm6A RNA]
activity on this sequence (FTO (Homo sapiens); 5' m7Gppp cap, first nucleotide m6A, 2'-O-methyl important for activity, variant of m7Gpppm6Am RNA): less active

AGCACUUGCUUUUGACACAACU [m7Gppp-Am RNA (decapping)]
activity on this sequence (DCP2 (Homo sapiens); first nucleotide 2'-OMe-A, decapping equivalent to unmodified A, variant of m7Gppp-A RNA (decapping)): active

AGUGGACUAACCACCAUGGAAGGU [internal m6A RNA (DRACH)]
activity on this sequence (FTO (Homo sapiens); internal m6A (AGUGGm6ACU), not readily detected at 100 nM FTO, detected at 200 nM, oligo assignment by m6A consensus): less active

GACACUUGCUUUUGACACAACU [m7GpppACm6A RNA]
activity on this sequence (FTO (Homo sapiens); 5' m7Gppp cap, m6A at third nucleotide, m6A demethylation poor in diverse contexts, variant of m7Gpppm6Am RNA): less active

AGCACUUGCUUUUGACACAACU [m7Gppp-m6A RNA (decapping)]
activity on this sequence (DCP2 (Homo sapiens); first nucleotide m6A, significantly reduced decapping, variant of m7Gppp-A RNA (decapping)): less active

GACACUUGCUUUUGACACAACU [Gpppm6Am RNA]
activity on this sequence (FTO (Homo sapiens); 5' Gppp cap without N7-methyl, first nucleotide m6Am, 200 nM FTO, 20 uM RNA, 30 min, impaired without N7-methyl, variant of m7Gpppm6Am RNA): less active

ACACUUGCUUUUGACACAACU [pm6Am RNA]
activity on this sequence (FTO (Homo sapiens); 5' monophosphate, first nucleotide m6Am, further reduced with monophosphate, variant of m7Gpppm6Am RNA): less active
